Source: PubChem BioAssay AID1508588 (Peter MacCallum Cancer Centre, 2020)
Test: 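Knock-downs boosting vemurafenib effects on melanoma cell growth or lactate release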 (primary screen). Cells: human WM266.4 melanoma cells (BRAF V600 mutant). Knock-down reagent: siRNA pool against human genes, 40 nM. Time to read-out: 96 h from transfection to read-out. Conditions: vemurafenib 300 nM (about IC25), added 48 h after transfection, for 48 h; comparison arm got DMSO vehicle only. Read-out: 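Ratios to non-targeting siRNA for cell gain, counted as DAPI nuclei after minus before drug and averaged over two replicates, and for absorbance-read medium lactate per cell; both binned into fold-change classes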. Direction: cell gain with vemurafenib: higher = more cell gain than with non-targeting siRNA; lactate per cell with vemurafenib: higher = more lactate made per cell. Rule for the call: 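a knock-down counts as enhancing when its fold-change classes with vehicle and with vemurafenib, taken together, show a stronger drug effect on cell gain or lactate per cell; exact class pairs not stated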. Calls: active = enhances vemurafenib effect; inactive = no enhancement seen.
The deposit covers about 18,000 reagents; shown is a random part of them. 790 of all reagents (4.4%) count as active. 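Calls rest on a combination of fold-change classes in drug and vehicle arms, not all shown here.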 Entries without a mark were called inactive. Reagents against one gene are numbered here. Some reagents were tested in more than one well and are listed for each. Reagent sequences are not shown.

gene knocked down | reagent | cell gain with vemurafenib | lactate per cell with vemurafenib
TMEM120A (GeneID 83862) | 1 | 0.49 | 1.25
CCRL2 (GeneID 9034) | 1 | 0.5 | 1.6
NGDN (GeneID 25983) | 1 | 0.66 | 0.82
MCEE (GeneID 84693) | 1 | 0.65 | 1
OR2M2 (GeneID 391194) | 1 | 0.41 | 1.69
TCEAL6 (GeneID 158931) | 1 | 0.58 | 1.35
SLC2A8 (GeneID 29988) | 1 | 0.55 | 2.15
EFNB1 (GeneID 1947) | 1 | 0.21 | 1.66
ROM1 (GeneID 6094) | 1 | 0.62 | 0.36
ITGA6 (GeneID 3655) | 1 | 0.69 | 1.21
LOC389834 (GeneID 389834) | 1 | 0.37 | 2.27
PARP11 (GeneID 57097) | 1 | 0.62 | 0.95
EXOSC8 (GeneID 11340) | 1 | 0.02 | 2.09
E2F6 (GeneID 1876) | 1 | 1.18 | 0.57
KDELR3 (GeneID 11015) | 1 | 0.41 | 0.57
ASCC1 (GeneID 51008) | 1 | 0.47 | 1.06
HK3 (GeneID 3101) | 1 | 0.26 | 1.1
GALR1 (GeneID 2587) | 1 | 0.68 | 0.7
CFAP65 (GeneID 255101) | 1 | 0.69 | 0.63
SMAD5 (GeneID 4090) | 1 | 0.72 | 0.78
FHOD3 (GeneID 80206) | 1 | 0.35 | 0.96
PCOLCE (GeneID 5118) | 1 | 1 | 0.8
LRP1 (GeneID 4035) | 1 | 0.35 | 1.48
NIPA2 (GeneID 81614) | 1 | 0.78 (active) | 0.7
HEMK1 (GeneID 51409) | 1 | 0.5 | 0.83
CAMKV (GeneID 79012) | 1 | 0.45 | 0.66
PKLR (GeneID 5313) | 1 | 0.94 | 1.09
MEFV (GeneID 4210) | 1 | 0.58 | 0.74
KRT14 (GeneID 3861) | 1 | 0.54 | 0.86
SLC7A1 (GeneID 6541) | 1 | 0.45 | 0.47
ABCA2 (GeneID 20) | 1 | 0.41 | 0.87
ATP13A3 (GeneID 79572) | 1 | 0.65 | 1.77
TSPAN16 (GeneID 26526) | 1 | 0.9 | 0.9
MITD1 (GeneID 129531) | 1 | 0.74 | 0.94
P2RX7 (GeneID 5027) | 1 | 0.32 | 2.03
TMEM14A (GeneID 28978) | 1 | 0.36 | 0.75
CRAT (GeneID 1384) | 1 | 0.37 | 0.68
MYO18A (GeneID 399687) | 1 | 0.47 | 1.1
MYO18A (GeneID 399687) | 2 | 0.42 | 1.16
SSBP3 (GeneID 23648) | 1 | 0.29 | 1.6
RABGGTB (GeneID 5876) | 1 | 0.87 | 1.06
HPF1 (GeneID 54969) | 1 | 0.81 | 1.1
SLC36A4 (GeneID 120103) | 1 | 0.92 | 0.77
SLC26A3 (GeneID 1811) | 1 | 1.18 | 1.16
PSME4 (GeneID 23198) | 1 | 0.87 | 1.55
POU5F2 (GeneID 134187) | 1 | 0.68 | 0.2
UGP2 (GeneID 7360) | 1 | 0.74 | 1.13
CSN3 (GeneID 1448) | 1 | 0.27 | 1.2
TNIP2 (GeneID 79155) | 1 | 0.54 | 0.6
GLI4 (GeneID 2738) | 1 | 0.91 | 0.39
FTH1 (GeneID 2495) | 1 | 0.95 | 1.19
SLC25A22 (GeneID 79751) | 1 | 0.52 | 0.52
RPL21 (GeneID 6144) | 1 | -0.06 | 2.09
ABCB5 (GeneID 340273) | 1 | 0.73 | 0.72
CYP4F12 (GeneID 66002) | 1 | 0.48 | 1.27
CLPSL2 (GeneID 389383) | 1 | 0.44 | 1.35
SF3A2 (GeneID 8175) | 1 | 0.08 | 1.5
BCAN (GeneID 63827) | 1 | 0.81 | 0.72
TBCB (GeneID 1155) | 1 | 0.62 (active) | 0.4
DMRT2 (GeneID 10655) | 1 | 0.29 | 1.42
SPCS2P4 (GeneID 653566) | 1 | 1.07 | 0.82
ORAI1 (GeneID 84876) | 1 | 0.32 | 1.11
ORAI1 (GeneID 84876) | 1 | 0.47 | 1.54
SHROOM2 (GeneID 357) | 1 | 0.54 | 0.95
OR6B3 (GeneID 150681) | 1 | 0.41 | 1.6
ALOXE3 (GeneID 59344) | 1 | 0.35 | 0.92
RARS1 (GeneID 5917) | 1 | 0.33 | 1.72
IFNA2 (GeneID 3440) | 1 | 0.85 | 0.97
FBXW7 (GeneID 55294) | 1 | 0.12 | 0.98
TMEM40 (GeneID 55287) | 1 | 0.94 | 0.45
NR1I2 (GeneID 8856) | 1 | 0.42 | 0.6
SLIRP (GeneID 81892) | 1 | 0.5 | 1.77
CRBN (GeneID 51185) | 1 | 0.49 | 1.28
KRTAP4-5 (GeneID 85289) | 1 | 0.72 | 0.94
EPB41L2 (GeneID 2037) | 1 | 0.62 | 1.54
TCF25 (GeneID 22980) | 1 | 0.29 | 1.42
AKAP19 (GeneID 84281) | 1 | 0.66 | 0.22
RGS9BP (GeneID 388531) | 1 | 0.44 | 0.85
PRKAR2B (GeneID 5577) | 1 | 0.15 | 1.28
ZNF26 (GeneID 7574) | 1 | 0.98 | 0.86
SLC25A11 (GeneID 8402) | 1 | 0.34 | 0.76
TRIM71 (GeneID 131405) | 1 | 0.71 | 1.45
DGKE (GeneID 8526) | 1 | 0.79 | 0.86
CTNNBIP1 (GeneID 56998) | 1 | 0.82 | 0.9

10 entries from above, set out differently:
gene knocked down	reagent	cell gain with vemurafenib	lactate per cell with vemurafenib
CCRL2 (GeneID 9034)	1	0.5	1.6
NGDN (GeneID 25983)	1	0.66	0.82
MCEE (GeneID 84693)	1	0.65	1
OR2M2 (GeneID 391194)	1	0.41	1.69
TCEAL6 (GeneID 158931)	1	0.58	1.35
SLC2A8 (GeneID 29988)	1	0.55	2.15
EFNB1 (GeneID 1947)	1	0.21	1.66
ROM1 (GeneID 6094)	1	0.62	0.36
ITGA6 (GeneID 3655)	1	0.69	1.21
LOC389834 (GeneID 389834)	1	0.37	2.27
